Square brackets hold non-standard residues; d marks the D form. Nle = CCCC[C@H](N)C(=O)O
Tests used:
[1] = general procedure: Fmoc solid-phase peptide synthesis; Fmoc Rink Amide MBHA resin; HBTU or DIC, HOBT; conditions: whole synthesis, TFA
[2] = peptide made by a vendor (Fmoc solid-phase peptide synthesis; Fmoc Rink Amide MBHA resin; HBTU or DIC, HOBT); conditions: whole synthesis, TFA
[3] = scale of the general procedure 0.25 mmol

Substance | isolated mass [1] | isolated yield [1, 3] | further results
Ac-KRFDREFLLAFQF[Nle]-NH2 | 64 mg | 11% | –
Ac-YDREFLLDFQF-NH2 | 69 mg | 17% | –
Ac-YDREFLLDFQFM-NH2 | 5 mg | 1% | –
Ac-KRYDREFLLAFQF[Nle]RRLRQRRRLRRERVRA-NH2 | 44 mg | 3% | –
Ac-WLLALFVYMWTDLRLFKKRPKP-NH2 | 96 mg | 11% | –
Ac-MANLAYWLLALFVYMWTDLRLFKKRPKP-NH2 | – | – | isolated mass ([1]; scale 0.25 mmol): 73 mg; isolated yield ([1]; scale 0.25 mmol): 7%
Ac-Leu-Ala-Tyr-Trp-Leu-Leu-Ala-Leu-Phe-Val-Tyr-Met-Trp-Thr-Asp-Leu-Arg-Leu-t-Butyl-Ala-Lys-Lys-Arg-Pro-Lys-Pro-NH2 | 55 mg | 6% | –
Ac-MANLAYWLLALFVYKWTDLRLFKKRPKP-NH2 | 81.6 mg | 8% | –
Ac-AYWLLALFVYMWTDLRLFKKRPKP-NH2 | 74 mg | 8% | –
Ac-LAYWLLALFVYMWTDLRLFKKRPKP-NH2 | 120 mg | 1% | –
Ac-MVKSKYGSWILLLFVAMWSDVGLCKKRPKP-NH2 | – | – | isolated mass ([2]; scale 0.25 mmol): 128 mg; isolated yield ([2]; scale 0.25 mmol): 14.5%
Ac-KRYDREFLLAFQF[Nle]VYDLGLRRLRQRRRLRR-NH2 | – | – | isolated mass ([2]; scale 0.25 mmol): 17 mg; isolated yield ([2]; scale 0.25 mmol): 2.6%
Ac-YWLLALFVYMWTDLRLFKKRPKP-NH2 | 60 mg | 7% | –
Ac-GAAEAAAYVYDLLLRFLRQRRRLRRERVRA-NH2 | – | – | isolated mass ([2]; scale 0.25 mmol): 33 mg; isolated yield ([2]; scale 0.25 mmol): 3.6%
Ac-MAKLKYWLLALFVYMWTDLLLFKKRPKP-NH2 | – | – | isolated mass ([1]; scale 0.25 mmol): 197 mg; isolated yield ([1]; scale 0.25 mmol): 19%
Ac-MVKSKIYSWILLLFFAMWSDVGLCKKRPKP-NH2 | – | – | isolated mass ([2]; scale 0.25 mmol): 87 mg; isolated yield ([2]; scale 0.25 mmol): 9.6%
Ac-YDREFLLDFQF[Nle]-NH2 | 128 mg | 29% | –

Substance | isolated mass [1] | isolated yield [1, 3] | further results
Ac-LLALFVYMWTDLRLFKKRPKP-NH2 | 137 mg | 17% | –
Ac-MANLAYWLLALFVY[Nle]WTDLRLFKKRPKP-NH2 | 9.7 mg | 1% | –
Ac-MANLGYWLLALFVYMWTDLLLFKKRPKP-NH2 | – | – | isolated mass ([2]; scale 0.25 mmol): 100 mg; isolated yield ([2]; scale 0.25 mmol): 11.5%
Ac-MYKSKILLWFLVLFVAMWSDVGLCKKRPKP-NH2 | – | – | isolated mass ([2]; scale 0.25 mmol): 85 mg; isolated yield ([2]; scale 0.25 mmol): 9.3%
Ac-MANLAYWLLALFVYRWTDLRLFKKRPKP-NH2 | 81.6 mg | 8% | –
Ac-YNREFLLDFQF[Nle]-NH2 | 18 mg | 3% | –
Ac-MANLAYWLLALFVYMFTDLRLFKKRPKP-NH2 | 48.7 mg | 55% | –
Ac-LAYWLLALFVAMWTDLRLFKKRPKP-NH2 | 120 mg | 13% | –
Ac-MVKYKIGSLLLFLFVAMWSDVGLCKKRPKP-NH2 | – | – | isolated mass ([2]; scale 0.25 mmol): 53 mg; isolated yield ([2]; scale 0.25 mmol): 6%
Ac-KRYDREFLLAFQF[Nle]-NH2 | 60 mg | 12% | –
Ac-ARVYDLGLRRLRQRRRLRRERVRAKRYDREFLLAFQF[Nle]-NH2 | – | – | isolated mass ([2]; scale 0.25 mmol): 6 mg; isolated yield ([2]; scale 0.25 mmol): 0.5%
Ac-KRYDREFLLAFQF[Nle]VYDLGLRRLRQRRRLRRERVRA-NH2 | – | – | isolated mass ([2]; scale 0.25 mmol): 38.6 mg; isolated yield ([2]; scale 0.25 mmol): 3.3%
Ac-MANLAYWLLALFVYLWTDLRLFKKRPKP-NH2 | 7.6 mg | 1% | –
Ac-GAAEAAARVYDLGLRRLRQRRYLRRELLRF-NH2 | – | – | isolated mass ([2]; scale 0.3 mmol): 21 mg; isolated yield ([2]; scale 0.3 mmol): 2.3%
Ac-ANLAYWLLALFVYMWTDLRLFKKRPKP-NH2 | 71 mg | 7% | –
Ac-LAYWLLALFVYMWTDLRLAKKRPKP-NH2 | 46 mg | 5% | –
Ac-NLAYWLLALFVYMWTDLRLFKKRPKP-NH2 | 93 mg | 10% | –

Reference: patent US9409961B2 (Hoffmann-La Roche Inc., priority 2012, dated 2016)
